Experimental data published in patent EP1161524B1, “CELLS COEXPRESSING AN AMYLOID PRECURSOR PROTEIN AND AN $g(a)-SECRETASE AND THEIR USES IN TEST METHODS AND DIAGNOSTICS” (Fahrenholz, Falk, priority 1999, dated 2007).
Part of at least one peptide drawing is inferred or uncertain, most often the ends. Ends that are not written are not given here.

Experiments:
Rinder-ADAM 10 = test: Protease test for substrate specificity: cleavage of peptide substrates by purified ADAM 10, HPLC analysis; type: biochemical, Rind (Bos taurus); details: for % Spaltung durch Rinder-ADAM 10 nach 30 min / % Spaltung durch Rinder-ADAM 10 nach 6 h: 37°C, peptide 0,3 mM, 2 µg purified enzyme, pH 8,3, relative to peptide incubated without enzyme; for Spaltung des Peptidsubstrats durch ADAM 10 (in words): comparative example, peptide substrates with ectodomain shedding cleavage sites
[1] = Circular dichroism spectroscopy of APP peptides; type: physicochemical; details: peptide 0,5 mM, 20 mM Tris/HCl pH 8,3, 250 mM NaCl, 0,5 % SDS, 4°C

| Compound | % Spaltung durch Rinder-ADAM 10 nach 30 min (Rinder-ADAM 10) | % Spaltung durch Rinder-ADAM 10 nach 6 h (Rinder-ADAM 10) | Spaltung des Peptidsubstrats durch ADAM 10 (in words) (Rinder-ADAM 10) | Konformation (CD-Spektrum) [1] |
| --- | --- | --- | --- | --- |
| TPNSARSEGPLPDSGR-NH2 [TPNSAR↓SEGPLPDSGR-NH2] | 0% | 0% | nicht die Peptidsubstrate spaltet | – |
| PLAQAVRSSSSRTPSD-NH2 [PLAQA↓VRSSSSRTPSD-NH2] | 49% | 100% | spaltet | – |
| ANATFLPVQDSSSV-NH2 [ANATFLPVQ↓DSSSV-NH2] | 14% | 54% | nicht die Peptidsubstrate spaltet | – |
| CC(C)C[C@H](NC(=O)[C@H](CCCCN)NC(=O)[C@H](CCC(N)=O)NC(=O)[C@H](Cc1c[nH]cn1)NC(=O)[C@H](Cc1c[nH]cn1)NC(=O)[C@@H](NC(=O)[C@@H](N)CCC(=O)O)C(C)C)C(=O)N[C@H](C(=O)N[C@@H](Cc1ccccc1)C(=O)N[C@@H](Cc1ccccc1)C(=O)N[C@@H](C)C(=O)N[C@@H](CCC(=O)O)C(=O)N[C@@H](CC(=O)O)C(=O)N[C@H](C(=O)NCC(=O)N[C@@H](CO)C(=O)N[C@@H](CC(N)=O)C(=O)N[C@@H](CCCCN)C(N)=O)C(C)C)C(C)C [Aβ(11-28)] | – | – | – | α-helicale Konformation |
| EVHHQKLVFFGEDVGSNK-NH2 [EVHHQK↓LVFFGEDVGSNK-NH2] | 14% | – | – | Zufallsknäul-Konformation |
